Literature values as cited in US4069016A, “Assay for bilirubin” (priority 1977, dated 1978).

System: Human Serum Albumin
Conditions: pH 7.4, 37° C; cited from earlier work

**Q.** Which “Binding Constant of primary or high affinity site(s) KA” value does the source give for Nc1ccc(S(N)(=O)=O)cc1 [Sulfanilamide, reference compound] here?
**A.** < 20 M⁻¹
